# Laboratory results: PubChem BioAssay AID504808 (Drosophila RNAi Screening Center, 2011)
# Screen: 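Fly genes required to hold E2F transcription in check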 (primary screen)
# System: Drosophila S2 cells
# Knock-down reagent: long dsRNA against Drosophila genes
# Detection: 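Dual luciferase plate measurements; E2F-specific signal taken as firefly over Renilla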
# Reading the numbers: E2F firefly: higher = more E2F reporter activity; Renilla normaliser: higher = more normaliser reporter signal
# Hit rule: 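a knock-down counted as active when the firefly/Renilla E2F signal rose above 50%, a threshold chosen arbitrarily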
# The screen tested about 21,000 reagents; below is a random part of those that have a named target and a result. Of all reagents, 18 (0.084%) got an active call. 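Raw counts without plate normalisation, one of two replicates; the ratio scores behind the calls were not deposited.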 Unmarked entries are inactive. Reagents against one gene are numbered here. A plus sign joins genes that one reagent is predicted to hit. No sequences are given here. Not given: the amount of reagent, the time to read-out.
The opening 4 records, ahead of the listing:
target,reagent,"E2F firefly, rep 1","Renilla normaliser, rep 1"
p130CAS + Dic61B,1,61955,3259
skd,1,1.40e5,6318
cbt,1,77314,3790
Cyp4p2,1,3330,193

The listing, from the first entry:
target,reagent,"E2F firefly, rep 1","Renilla normaliser, rep 1"
p130CAS + Dic61B,1,61955,3259
skd,1,1.40e5,6318
cbt,1,77314,3790
Cyp4p2,1,3330,193
eIF4G2,1,80999,3454
CG32985,1,1.47e5,5565
CG4073,1,1.45e5,7033
CCKLR-17D1,1,1.50e5,6758
CCKLR-17D1,2,1.47e5,6221
CCKLR-17D1,3,1.35e5,5610
SmD2,1,47721,201
lin-52,1,44131,3883
Adar,1,1.20e5,5503
CG14054,1,1.07e5,6533
CG2218,1,1687,936
Golgin245,1,80864,3562
faf,1,59659,4279
CG16956,1,1.09e5,4385
Tsp42Eq,1,1.56e5,5166
CG12520,1,1.31e5,6612
CG3281,1,74493,3450
CG34325,1,1.69e5,6651
CG34325,2,1.63e5,7076
tws,1,72118,3621
tws,2,81295,4164
tzn,1,68445,2730
dsx,1,75661,3368
dsx,2,82315,3170
orb2,1,53996,2929
orb2,2,95983,3858
orb2,3,74175,3449
CG14082,1,1.49e5,6697
CG1316,1,99406,3441
dnt,1,77506,3450
